# Results from the supplement of paper PMC6411743.
# Sequences of proteins named here, by UniProt entry; tags and fusion partners are left off. A change or cut given only in a name is not applied to a line headed by its entry.
# UniProt Q13045: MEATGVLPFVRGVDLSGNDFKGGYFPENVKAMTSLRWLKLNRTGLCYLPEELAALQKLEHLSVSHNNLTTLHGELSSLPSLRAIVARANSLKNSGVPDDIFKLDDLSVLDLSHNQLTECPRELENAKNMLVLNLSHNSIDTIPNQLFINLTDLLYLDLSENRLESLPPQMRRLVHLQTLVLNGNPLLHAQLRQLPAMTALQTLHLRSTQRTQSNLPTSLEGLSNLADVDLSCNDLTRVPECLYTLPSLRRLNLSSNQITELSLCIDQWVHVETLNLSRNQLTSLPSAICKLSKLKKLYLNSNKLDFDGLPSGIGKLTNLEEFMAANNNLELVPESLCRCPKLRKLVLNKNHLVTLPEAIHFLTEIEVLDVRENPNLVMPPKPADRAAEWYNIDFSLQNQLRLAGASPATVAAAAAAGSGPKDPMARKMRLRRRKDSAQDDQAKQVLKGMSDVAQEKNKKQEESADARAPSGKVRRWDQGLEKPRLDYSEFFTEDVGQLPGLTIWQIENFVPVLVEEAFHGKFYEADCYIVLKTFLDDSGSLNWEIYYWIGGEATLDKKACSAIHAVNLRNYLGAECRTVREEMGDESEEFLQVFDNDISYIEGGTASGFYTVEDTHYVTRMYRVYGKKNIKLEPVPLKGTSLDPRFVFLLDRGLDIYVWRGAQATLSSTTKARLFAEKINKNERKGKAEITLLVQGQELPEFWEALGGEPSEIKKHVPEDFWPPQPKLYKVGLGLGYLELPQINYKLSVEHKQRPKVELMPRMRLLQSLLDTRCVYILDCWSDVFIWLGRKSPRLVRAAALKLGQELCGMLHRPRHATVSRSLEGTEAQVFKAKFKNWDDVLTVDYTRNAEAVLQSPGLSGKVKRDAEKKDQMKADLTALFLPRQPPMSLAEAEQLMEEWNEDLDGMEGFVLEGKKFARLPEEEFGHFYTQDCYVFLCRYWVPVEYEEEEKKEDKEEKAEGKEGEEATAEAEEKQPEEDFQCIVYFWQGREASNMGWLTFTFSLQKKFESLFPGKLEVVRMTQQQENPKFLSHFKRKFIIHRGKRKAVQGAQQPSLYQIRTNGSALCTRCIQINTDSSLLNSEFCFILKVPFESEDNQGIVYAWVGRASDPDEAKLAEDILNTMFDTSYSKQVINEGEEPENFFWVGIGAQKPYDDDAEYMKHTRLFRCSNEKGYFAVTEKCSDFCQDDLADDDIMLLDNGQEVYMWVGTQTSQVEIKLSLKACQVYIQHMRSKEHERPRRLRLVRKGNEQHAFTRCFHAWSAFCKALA
# UniProt Q13795: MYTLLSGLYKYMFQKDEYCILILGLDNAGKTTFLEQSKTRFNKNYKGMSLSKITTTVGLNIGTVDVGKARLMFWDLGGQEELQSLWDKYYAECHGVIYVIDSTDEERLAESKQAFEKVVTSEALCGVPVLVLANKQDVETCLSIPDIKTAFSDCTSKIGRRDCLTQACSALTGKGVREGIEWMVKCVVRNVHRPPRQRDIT
# UniProt Q12765: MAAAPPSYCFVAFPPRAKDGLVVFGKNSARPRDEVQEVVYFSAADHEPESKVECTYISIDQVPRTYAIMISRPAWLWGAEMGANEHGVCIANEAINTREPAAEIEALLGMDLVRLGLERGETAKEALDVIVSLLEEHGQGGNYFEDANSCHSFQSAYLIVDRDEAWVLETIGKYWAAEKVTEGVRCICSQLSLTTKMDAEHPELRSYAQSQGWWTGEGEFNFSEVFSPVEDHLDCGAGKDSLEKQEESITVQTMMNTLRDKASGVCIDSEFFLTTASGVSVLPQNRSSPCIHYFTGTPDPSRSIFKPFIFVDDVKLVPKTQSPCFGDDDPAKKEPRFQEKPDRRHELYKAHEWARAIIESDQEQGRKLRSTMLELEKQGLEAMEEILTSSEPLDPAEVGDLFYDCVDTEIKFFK
# UniProt Q13885, whole entry: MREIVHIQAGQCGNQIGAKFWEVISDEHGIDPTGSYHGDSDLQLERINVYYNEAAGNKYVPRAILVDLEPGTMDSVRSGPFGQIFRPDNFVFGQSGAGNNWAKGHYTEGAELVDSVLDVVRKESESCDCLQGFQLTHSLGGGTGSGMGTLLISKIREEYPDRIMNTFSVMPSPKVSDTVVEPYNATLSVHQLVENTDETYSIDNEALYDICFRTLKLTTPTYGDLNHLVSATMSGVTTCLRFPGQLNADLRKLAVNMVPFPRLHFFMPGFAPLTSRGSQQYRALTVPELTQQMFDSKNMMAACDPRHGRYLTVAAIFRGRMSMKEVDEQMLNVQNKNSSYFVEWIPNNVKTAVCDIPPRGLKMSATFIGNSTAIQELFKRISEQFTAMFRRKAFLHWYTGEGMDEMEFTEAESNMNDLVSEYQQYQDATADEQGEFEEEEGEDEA
# UniProt Q13574: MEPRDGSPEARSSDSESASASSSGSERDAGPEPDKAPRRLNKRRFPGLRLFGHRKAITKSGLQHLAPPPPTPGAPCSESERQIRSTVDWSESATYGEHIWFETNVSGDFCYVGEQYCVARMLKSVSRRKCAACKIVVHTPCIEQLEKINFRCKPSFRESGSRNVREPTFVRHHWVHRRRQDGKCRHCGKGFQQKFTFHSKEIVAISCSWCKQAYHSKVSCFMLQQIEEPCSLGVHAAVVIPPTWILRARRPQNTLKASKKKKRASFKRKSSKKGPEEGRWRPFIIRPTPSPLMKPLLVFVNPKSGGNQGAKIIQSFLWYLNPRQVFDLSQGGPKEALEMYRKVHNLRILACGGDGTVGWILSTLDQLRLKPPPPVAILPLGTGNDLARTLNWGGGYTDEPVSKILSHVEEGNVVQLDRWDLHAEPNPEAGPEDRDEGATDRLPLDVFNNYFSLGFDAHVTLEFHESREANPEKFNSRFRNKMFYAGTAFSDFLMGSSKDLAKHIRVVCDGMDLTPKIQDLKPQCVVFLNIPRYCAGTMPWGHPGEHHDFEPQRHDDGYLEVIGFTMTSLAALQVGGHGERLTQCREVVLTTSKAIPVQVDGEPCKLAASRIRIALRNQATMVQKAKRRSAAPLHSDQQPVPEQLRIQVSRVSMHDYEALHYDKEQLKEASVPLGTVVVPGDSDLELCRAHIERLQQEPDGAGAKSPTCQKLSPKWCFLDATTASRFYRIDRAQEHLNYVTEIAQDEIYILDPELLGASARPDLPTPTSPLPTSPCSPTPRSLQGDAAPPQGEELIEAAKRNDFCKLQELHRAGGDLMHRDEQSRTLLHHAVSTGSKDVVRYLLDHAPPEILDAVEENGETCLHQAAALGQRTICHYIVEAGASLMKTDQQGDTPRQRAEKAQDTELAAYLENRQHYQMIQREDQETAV
# UniProt Q13029: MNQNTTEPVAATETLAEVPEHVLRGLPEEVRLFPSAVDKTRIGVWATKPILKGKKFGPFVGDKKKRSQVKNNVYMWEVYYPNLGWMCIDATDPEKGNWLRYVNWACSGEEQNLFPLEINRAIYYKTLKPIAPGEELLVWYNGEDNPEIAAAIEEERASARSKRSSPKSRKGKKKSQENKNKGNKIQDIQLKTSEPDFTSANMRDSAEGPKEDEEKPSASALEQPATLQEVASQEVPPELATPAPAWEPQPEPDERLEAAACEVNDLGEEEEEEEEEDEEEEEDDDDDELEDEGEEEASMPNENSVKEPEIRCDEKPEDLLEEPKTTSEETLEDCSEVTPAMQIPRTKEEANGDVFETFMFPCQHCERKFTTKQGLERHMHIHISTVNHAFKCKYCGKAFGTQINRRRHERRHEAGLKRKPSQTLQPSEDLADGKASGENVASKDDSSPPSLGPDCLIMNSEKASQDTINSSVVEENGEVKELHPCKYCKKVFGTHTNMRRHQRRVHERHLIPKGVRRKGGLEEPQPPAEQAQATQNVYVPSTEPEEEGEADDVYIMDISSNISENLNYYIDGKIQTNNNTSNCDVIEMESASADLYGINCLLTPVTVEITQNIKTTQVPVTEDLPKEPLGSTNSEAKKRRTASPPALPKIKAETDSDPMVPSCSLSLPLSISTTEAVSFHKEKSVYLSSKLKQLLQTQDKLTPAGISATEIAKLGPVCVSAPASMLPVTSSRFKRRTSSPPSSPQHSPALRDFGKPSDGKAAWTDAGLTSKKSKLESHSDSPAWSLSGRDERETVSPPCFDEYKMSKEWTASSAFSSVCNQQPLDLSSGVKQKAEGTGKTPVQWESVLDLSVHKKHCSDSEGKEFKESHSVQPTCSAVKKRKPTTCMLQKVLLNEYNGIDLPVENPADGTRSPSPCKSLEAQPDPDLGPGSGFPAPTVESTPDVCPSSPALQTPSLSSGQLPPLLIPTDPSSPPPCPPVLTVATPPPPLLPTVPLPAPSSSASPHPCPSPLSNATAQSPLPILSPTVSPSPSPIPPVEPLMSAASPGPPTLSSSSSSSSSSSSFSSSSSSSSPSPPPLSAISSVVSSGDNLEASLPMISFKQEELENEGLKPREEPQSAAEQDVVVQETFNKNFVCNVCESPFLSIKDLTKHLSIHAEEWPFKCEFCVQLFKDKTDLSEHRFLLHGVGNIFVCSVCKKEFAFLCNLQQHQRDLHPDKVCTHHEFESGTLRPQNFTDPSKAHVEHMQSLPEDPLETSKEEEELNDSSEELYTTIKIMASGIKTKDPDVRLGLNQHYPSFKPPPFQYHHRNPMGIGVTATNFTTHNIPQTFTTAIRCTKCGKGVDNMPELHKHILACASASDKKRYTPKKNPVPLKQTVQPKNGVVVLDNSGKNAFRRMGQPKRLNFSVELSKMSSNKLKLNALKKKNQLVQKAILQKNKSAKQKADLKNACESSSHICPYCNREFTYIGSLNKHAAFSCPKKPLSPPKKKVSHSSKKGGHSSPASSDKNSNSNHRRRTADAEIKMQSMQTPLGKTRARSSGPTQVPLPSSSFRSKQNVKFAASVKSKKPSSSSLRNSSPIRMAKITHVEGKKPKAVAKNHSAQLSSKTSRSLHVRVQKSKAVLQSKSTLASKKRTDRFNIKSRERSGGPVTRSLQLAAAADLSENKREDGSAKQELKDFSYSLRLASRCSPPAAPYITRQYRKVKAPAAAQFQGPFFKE
# UniProt Q13951, whole entry: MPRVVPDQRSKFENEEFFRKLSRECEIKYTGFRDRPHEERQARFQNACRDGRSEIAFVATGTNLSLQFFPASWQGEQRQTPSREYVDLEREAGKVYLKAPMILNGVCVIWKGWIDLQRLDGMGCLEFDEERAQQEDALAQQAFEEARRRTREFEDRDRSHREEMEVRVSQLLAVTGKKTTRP
# UniProt Q14554: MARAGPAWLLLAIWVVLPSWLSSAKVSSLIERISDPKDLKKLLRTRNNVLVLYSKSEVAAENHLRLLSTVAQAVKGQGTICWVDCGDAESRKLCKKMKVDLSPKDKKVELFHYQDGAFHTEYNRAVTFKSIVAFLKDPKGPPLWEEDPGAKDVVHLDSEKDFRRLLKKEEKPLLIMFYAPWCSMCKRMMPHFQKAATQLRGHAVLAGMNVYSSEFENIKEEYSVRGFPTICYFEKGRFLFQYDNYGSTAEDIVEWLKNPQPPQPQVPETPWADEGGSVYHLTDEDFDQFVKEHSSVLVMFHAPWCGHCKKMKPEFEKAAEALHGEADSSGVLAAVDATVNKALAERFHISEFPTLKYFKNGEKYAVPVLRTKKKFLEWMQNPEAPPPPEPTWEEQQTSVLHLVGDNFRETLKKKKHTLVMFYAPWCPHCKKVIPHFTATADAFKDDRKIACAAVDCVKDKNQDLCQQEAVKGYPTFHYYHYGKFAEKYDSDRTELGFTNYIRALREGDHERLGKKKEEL
# UniProt Q15102: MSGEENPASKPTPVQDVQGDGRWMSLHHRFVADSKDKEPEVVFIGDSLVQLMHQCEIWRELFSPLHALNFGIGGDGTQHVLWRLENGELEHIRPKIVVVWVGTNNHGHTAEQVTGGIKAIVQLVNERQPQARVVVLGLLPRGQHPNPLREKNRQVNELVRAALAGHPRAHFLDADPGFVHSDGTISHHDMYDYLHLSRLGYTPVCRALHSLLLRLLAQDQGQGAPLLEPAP
# UniProt Q14739: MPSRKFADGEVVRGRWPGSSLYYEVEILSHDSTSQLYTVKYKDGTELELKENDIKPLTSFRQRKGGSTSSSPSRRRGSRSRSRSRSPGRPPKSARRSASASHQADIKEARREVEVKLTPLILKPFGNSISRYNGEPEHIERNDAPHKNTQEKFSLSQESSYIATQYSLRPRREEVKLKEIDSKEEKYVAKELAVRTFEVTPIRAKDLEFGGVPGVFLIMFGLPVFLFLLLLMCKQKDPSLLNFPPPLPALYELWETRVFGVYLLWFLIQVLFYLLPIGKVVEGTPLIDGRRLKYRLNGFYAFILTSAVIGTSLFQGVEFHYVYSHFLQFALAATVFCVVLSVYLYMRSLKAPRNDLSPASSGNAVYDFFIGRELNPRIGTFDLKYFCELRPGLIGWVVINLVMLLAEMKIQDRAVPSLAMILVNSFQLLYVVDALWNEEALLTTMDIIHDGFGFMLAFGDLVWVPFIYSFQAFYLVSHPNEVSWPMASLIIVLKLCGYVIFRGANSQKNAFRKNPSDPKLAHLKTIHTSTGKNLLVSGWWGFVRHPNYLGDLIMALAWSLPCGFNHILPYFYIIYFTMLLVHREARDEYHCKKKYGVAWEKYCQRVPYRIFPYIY
# ± gives the standard deviation of the averaged measurements. This is a selection; strong and weak results do not stand in their true shares.
# Compound: Nc1ncnc2c1ncn2[C@@H]1O[C@H](COP(=O)(O)OP(=O)(O)NP(=O)(O)O)[C@@H](O)[C@H]1O [adenylyl imidodiphosphate]
# Test: NP40-soluble protein abundance relative to vehicle (solubility fold change) (ratio); higher = more soluble protein in presence of AMP-PNP
# Summary of the method: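 Across three independent experiments, values are fold changes against the detergent-processed vehicle for each replicate, based on vsn-normalised intensities. The samples were Jurkat crude lysate treated with eight concentrations (0.1 to 10 mM) for 10 min at room temperature and then 3 min at 37 °C. Lysate was solubilised with 0.8% NP40 and benzonase, ultracentrifuged, and the supernatant analysed by TMT-labelled LC-MS/MS.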
Target,NP40-soluble protein abundance (concentration: 1mM),NP40-soluble protein abundance (concentration: 2mM),NP40-soluble protein abundance (concentration: 4mM),NP40-soluble protein abundance (concentration: 6mM),NP40-soluble protein abundance (concentration: 8mM),NP40-soluble protein abundance (concentration: 10mM)
UniProt Q13469 and related entries,1.01 ± 0.025,1.03 ± 0.018,1.02 ± 0.03,0.986 ± 0.024,0.9525 ± 0.0032,0.991 ± 0.011
URB2 (UniProt Q14146),0.971 ± 0.018,0.9722 ± 0.0054,0.988 ± 0.013,1.05 ± 0.018,1.07 ± 0.023,1.1 ± 0.055
UniProt Q14934 and related entries,1.01 ± 0.019,1.03 ± 0.059,1.02 ± 0.011,1.01 ± 0.049,1 ± 0.018,1.02 ± 0.032
TFDP1 (UniProt Q14186),1.03 ± 0.015,1.03 ± 0.022,1.03 ± 0.012,0.9853 ± 0.0079,1 ± 0.031,1.02 ± 0.021
SUZ12 (UniProt Q15022),1.02 ± 0.022,1.05 ± 0.013,1.09 ± 0.025,1.09 ± 0.021,1.12 ± 0.025,1.16 ± 0.044
BYSL (UniProt Q13895),0.998 ± 0.01,0.978 ± 0.033,0.999 ± 0.047,1.01 ± 0.025,0.996 ± 0.011,1.04 ± 0.056
UniProt Q12931 and related entries,0.97 ± 0.036,0.911 ± 0.031,0.956 ± 0.03,0.997 ± 0.06,0.997 ± 0.031,0.966 ± 0.037
UniProt Q13033-2,0.985 ± 0.057,1.01 ± 0.022,0.9743 ± 0.0056,0.986 ± 0.02,0.957 ± 0.029,0.975 ± 0.025
UniProt Q14498 and related entries,1.02 ± 0.027,1.03 ± 0.035,1.08 ± 0.034,1.098 ± 0.0082,1.12 ± 0.03,1.19 ± 0.021
UniProt Q13045 and related entries,1.005 ± 0.0082,0.958 ± 0.041,0.989 ± 0.026,1 ± 0.021,1 ± 0.013,0.964 ± 0.031
UniProt Q13795 and related entries,0.98 ± 0.078,0.994 ± 0.028,0.974 ± 0.052,1.02 ± 0.076,0.991 ± 0.072,0.992 ± 0.083
ECH1 (UniProt Q13011),0.93 ± 0.02,0.871 ± 0.062,0.879 ± 0.022,0.952 ± 0.03,0.942 ± 0.011,0.908 ± 0.022
UniProt Q14790 and related entries,0.977 ± 0.051,0.956 ± 0.045,0.976 ± 0.016,0.957 ± 0.044,0.986 ± 0.027,0.954 ± 0.0099
UniProt Q15056-2|Q15056,0.999 ± 0.037,1.03 ± 0.035,0.945 ± 0.14,0.94 ± 0.081,0.929 ± 0.087,0.884 ± 0.21
UniProt Q13642-1|Q13642-4|Q13642-5,0.972 ± 0.041,0.983 ± 0.022,0.995 ± 0.025,0.996 ± 0.045,1.01 ± 0.039,0.969 ± 0.025
UniProt Q14142 and related entries,1 ± 0.022,1.02 ± 0.018,1.008 ± 0.0028,1.06 ± 0.028,1.02 ± 0.023,1.04 ± 0.015
UniProt Q13363 and related entries,0.985 ± 0.022,0.966 ± 0.041,0.961 ± 0.023,1.05 ± 0.058,1.03 ± 0.07,1.04 ± 0.042
UniProt Q08AM6 and related entries,0.986 ± 0.029,0.963 ± 0.034,0.996 ± 0.02,0.947 ± 0.068,0.943 ± 0.082,0.979 ± 0.059
SCRN1 (UniProt Q12765),1 ± 0.02,0.985 ± 0.036,0.973 ± 0.035,0.9537 ± 0.0075,0.942 ± 0.012,0.951 ± 0.049
UniProt Q13905 and related entries,1 ± 0.019,1.03 ± 0.067,0.996 ± 0.011,0.965 ± 0.024,0.982 ± 0.044,0.987 ± 0.04

Target,NP40-soluble protein abundance (concentration: 1mM),NP40-soluble protein abundance (concentration: 2mM),NP40-soluble protein abundance (concentration: 4mM),NP40-soluble protein abundance (concentration: 6mM),NP40-soluble protein abundance (concentration: 8mM),NP40-soluble protein abundance (concentration: 10mM)
UniProt Q14693 and related entries,0.991 ± 0.029,1 ± 0.053,0.99 ± 0.03,1.01 ± 0.062,1.01 ± 0.04,1.01 ± 0.03
UniProt Q14694 and related entries,1.08 ± 0.052,1.13 ± 0.062,1.21 ± 0.12,1.25 ± 0.17,1.29 ± 0.18,1.3 ± 0.2
PIN1 (UniProt Q13526),1.03 ± 0.013,1.11 ± 0.069,1.05 ± 0.022,1.06 ± 0.031,1.06 ± 0.015,1.08 ± 0.057
UniProt Q13885,1.03 ± 0.065,1.02 ± 0.049,0.986 ± 0.05,0.991 ± 0.054,0.948 ± 0.081,0.981 ± 0.055
WDR43 (UniProt Q15061),1 ± 0.011,1.016 ± 0.0073,1.051 ± 0.0072,1.05 ± 0.0082,1.0448 ± 0.00071,1.1 ± 0.031
EIF3A (UniProt Q14152),1.05 ± 0.029,1.08 ± 0.044,1.12 ± 0.087,1.19 ± 0.12,1.25 ± 0.12,1.38 ± 0.19
UniProt Q14865,1.03 ± 0.066,1.01 ± 0.051,1 ± 0.06,0.964 ± 0.075,0.942 ± 0.041,0.958 ± 0.075
NCOA6 (UniProt Q14686),1 ± 0.043,1.06 ± 0.053,1.06 ± 0.037,0.975 ± 0.019,0.983 ± 0.029,0.992 ± 0.0062
UniProt Q13574 and related entries,1.014 ± 0.0035,1.006 ± 0.0062,1.04 ± 0.048,0.999 ± 0.048,0.983 ± 0.071,0.996 ± 0.1
UniProt Q13422 and related entries,0.984 ± 0.014,0.992 ± 0.022,0.954 ± 0.019,0.989 ± 0.027,0.989 ± 0.026,1.03 ± 0.024
UniProt Q13029 and related entries,0.997 ± 0.025,1.05 ± 0.07,1.03 ± 0.019,0.996 ± 0.041,1 ± 0.011,1.018 ± 0.0089
UniProt Q13951 and related entries,1.04 ± 0.027,1.13 ± 0.15,1.06 ± 0.053,1.03 ± 0.036,1.01 ± 0.022,1.06 ± 0.086
SAFB2 (UniProt Q14151),1.08 ± 0.05,1.18 ± 0.064,1.15 ± 0.044,1.2 ± 0.08,1.2 ± 0.093,1.3 ± 0.12
UniProt Q14103-3|Q14103-4|D6RF44,1 ± 0.068,1.03 ± 0.053,0.998 ± 0.028,1.07 ± 0.027,1.06 ± 0.029,1.09 ± 0.042
KIF14 (UniProt Q15058),1.02 ± 0.017,1 ± 0.034,1.02 ± 0.06,0.956 ± 0.027,0.94 ± 0.01,0.975 ± 0.017
NMI (UniProt Q13287),1.01 ± 0.019,1.013 ± 0.0084,1.03 ± 0.014,1.008 ± 0.0075,1 ± 0.042,1.02 ± 0.069
NNT (UniProt Q13423),0.989 ± 0.012,0.978 ± 0.037,0.964 ± 0.019,0.946 ± 0.018,0.947 ± 0.033,0.943 ± 0.025
UniProt Q14684 and related entries,1.06 ± 0.029,1.09 ± 0.06,1.09 ± 0.038,1.08 ± 0.037,1.1 ± 0.039,1.12 ± 0.059
UniProt Q14696,0.96 ± 0.027,1.03 ± 0.037,0.973 ± 0.031,0.995 ± 0.032,0.94 ± 0.02,0.982 ± 0.022
PDIA5 (UniProt Q14554),1.01 ± 0.016,1.02 ± 0.023,1.04 ± 0.021,1.04 ± 0.013,1.06 ± 0.02,1.06 ± 0.011

Target,NP40-soluble protein abundance (concentration: 1mM),NP40-soluble protein abundance (concentration: 2mM),NP40-soluble protein abundance (concentration: 4mM),NP40-soluble protein abundance (concentration: 6mM),NP40-soluble protein abundance (concentration: 8mM),NP40-soluble protein abundance (concentration: 10mM)
TBL3 (UniProt Q12788),1.07 ± 0.02,1.15 ± 0.05,1.21 ± 0.023,1.35 ± 0.027,1.46 ± 0.024,1.53 ± 0.075
KPNB1 (UniProt Q14974),1 ± 0.023,0.999 ± 0.042,0.995 ± 0.031,1.01 ± 0.033,1.01 ± 0.048,1.02 ± 0.033
UniProt Q14008 and related entries,1.02 ± 0.0027,1.06 ± 0.068,1.025 ± 0.0049,1.03 ± 0.018,1.016 ± 0.0082,1.046 ± 0.009
UniProt Q12906 and related entries,1.07 ± 0.069,1.119 ± 0.011,1.13 ± 0.068,1.16 ± 0.088,1.16 ± 0.093,1.22 ± 0.12
SF3A3 (UniProt Q12874),1.01 ± 0.034,1.03 ± 0.023,0.979 ± 0.041,1.03 ± 0.026,1.016 ± 0.0074,1.04 ± 0.028
UniProt Q14677 and related entries,0.999 ± 0.026,1.03 ± 0.069,0.983 ± 0.052,1 ± 0.026,0.974 ± 0.03,1.03 ± 0.043
UniProt Q10589 and related entries,1.0272 ± 0.00052,1.04 ± 0.011,1.03 ± 0.025,1.03 ± 0.028,1.05 ± 0.056,1.04 ± 0.048
ACAP1 (UniProt Q15027),0.977 ± 0.064,0.9326 ± 0.0073,1 ± 0.051,1.02 ± 0.083,1.02 ± 0.09,1 ± 0.045
PAFAH1B3 (UniProt Q15102),0.946 ± 0.036,0.927 ± 0.038,0.939 ± 0.06,0.998 ± 0.087,0.99 ± 0.06,0.982 ± 0.039
WRN (UniProt Q14191),1.07 ± 0.029,1.11 ± 0.016,1.11 ± 0.047,1.09 ± 0.078,1.06 ± 0.043,1.11 ± 0.079
LBR (UniProt Q14739),0.95 ± 0.039,0.943 ± 0.018,0.951 ± 0.032,0.975 ± 0.031,1.02 ± 0.027,0.9883 ± 0.0059
MGAT2 (UniProt Q10469),1.02 ± 0.028,1.01 ± 0.022,1 ± 0.02,0.996 ± 0.024,1 ± 0.028,0.984 ± 0.018
UniProt Q13625 and related entries,1 ± 0.037,1.04 ± 0.038,1.02 ± 0.052,1.01 ± 0.051,0.958 ± 0.017,1.02 ± 0.046
UniProt Q15042,1.01 ± 0.013,1 ± 0.041,0.996 ± 0.02,0.94 ± 0.022,0.94 ± 0.0096,0.955 ± 0.014
FHL3 (UniProt Q13643),0.994 ± 0.017,0.988 ± 0.045,0.973 ± 0.037,0.963 ± 0.04,0.93 ± 0.063,0.929 ± 0.062
RBL2 (UniProt Q08999),0.983 ± 0.019,0.997 ± 0.01,0.978 ± 0.025,0.974 ± 0.045,0.946 ± 0.012,0.9615 ± 0.0056
UniProt Q13310-3|Q13310,1.02 ± 0.045,1 ± 0.021,1.02 ± 0.066,1.07 ± 0.052,1.08 ± 0.055,1.09 ± 0.081
EIF4EBP2 (UniProt Q13542),1.04 ± 0.052,1.042 ± 0.0084,1.06 ± 0.028,1.07 ± 0.056,1.05 ± 0.018,1.08 ± 0.0052
ITPK1 (UniProt Q13572),1.019 ± 0.0014,1.035 ± 0.0039,1.01 ± 0.014,0.992 ± 0.025,1.02 ± 0.04,0.9738 ± 0.0084
CBX3 (UniProt Q13185),0.978 ± 0.03,1.03 ± 0.023,0.984 ± 0.02,1.01 ± 0.024,1.03 ± 0.018,0.97 ± 0.024

# Single records, from the list above. Order of values: NP40-soluble protein abundance (concentration: 1mM)	NP40-soluble protein abundance (concentration: 2mM)	NP40-soluble protein abundance (concentration: 4mM)	NP40-soluble protein abundance (concentration: 6mM)	NP40-soluble protein abundance (concentration: 8mM)	NP40-soluble protein abundance (concentration: 10mM)
# TBL3 (UniProt Q12788) in the list: 1.07 ± 0.02	1.15 ± 0.05	1.21 ± 0.023	1.35 ± 0.027	1.46 ± 0.024	1.53 ± 0.075
# CBX3 (UniProt Q13185) in the list: 0.978 ± 0.03	1.03 ± 0.023	0.984 ± 0.02	1.01 ± 0.024	1.03 ± 0.018	0.97 ± 0.024
# UniProt Q14677 and related entries in the list: 0.999 ± 0.026	1.03 ± 0.069	0.983 ± 0.052	1 ± 0.026	0.974 ± 0.03	1.03 ± 0.043
# UniProt Q14008 and related entries in the list: 1.02 ± 0.0027	1.06 ± 0.068	1.025 ± 0.0049	1.03 ± 0.018	1.016 ± 0.0082	1.046 ± 0.009
